# The supplement of paper PMC10689618
# Where a name gives a salt, the structure may show the parent alone. This is one part of the list. Many values rest on one well or one pass, so single values are uncertain.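 Labelled rat cortical synaptosomes were engulfed by primary human fetal astrocytes. Engulfment equaled a red/green ratio, corrected for calcein live-cell signal and normalized to the plate median. Compounds were toxic when calcein dropped over 30%, and reduced phagocytosis when below 70% of the median above 5 µM.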
# System: Human fetal astrocytes
# Experiment: synaptosome phagocytosis (pHrodo/calcein intensity ratio) relative to plate median of data wells; higher = more phagocytosis
# Details: 22.22 µM; 24 h
row,Compound,synaptosome phagocytosis [%]
1,COc1cc(O)cc(OC)c1OC,90.6
2,Nc1ccc(C(=O)O)c(O)c1,141
3,Cc1cc(-c2ccccc2)nnc1NCCN1CCOCC1,89.5
4,C=C1c2c(Cl)ccc(O)c2C(O)=C2C(=O)[C@]3(O)C(O)=C(C(N)=O)C(=O)[C@@H](N(C)C)[C@@H]3[C@@H](O)[C@H]12.O=C(O)c1cc(S(=O)(=O)O)ccc1O,108
5,CCCCCCCCCc1ccc(OCCOCCOCCOCCOCCOCCOCCOCCOCCO)cc1,32.3
6,O=C1CCc2ccc(OCCCCN3CCN(c4cccc(Cl)c4Cl)CC3)cc2N1,101
7,NC(=O)c1cc[n+](CC2=C(C(=O)O)N3C(=O)[C@@H](NC(=O)[C@@H](c4ccccc4)S(=O)(=O)[O-])[C@H]3SC2)cc1,104
8,CC(C)=CC1C(C(=O)O)C1(C)C (centres undefined),92.7
9,CCC(C)C(=O)OC1[C@@H]2CC3=C4CC(=O)O[C@@H](c5ccoc5)[C@]4(C)CCC3[C@@](C)(C2=O)[C@@H](CC(=O)OC)C1(C)C (some centres undefined),150
10,C/C=C1\[C@H]2C=C(C)C[C@]1(N)c1ccc(=O)[nH]c1C2,92.2
11,Nc1cc(C(Cl)=C(Cl)Cl)c(S(N)(=O)=O)cc1S(N)(=O)=O,114
12,CC(C)(C(=O)O)c1ccc(C(O)CCCN2CCC(C(O)(c3ccccc3)c3ccccc3)CC2)cc1 (centres undefined) [Fexofenadine hydrochloride],111
13,CO[C@@]1(NC(=O)C(C(=O)O)c2ccc(O)cc2)C(=O)N2C(C(=O)O)=C(CSc3nnnn3C)CO[C@@H]21 (some centres undefined),120
14,Cc1ncc(CO)c(CO)c1O,88.6
15,CCOc1ccc(NC(C)=O)cc1,104
16,COc1cc(C(=O)N2CCOCC2)cc(OC)c1OC,93.1
17,CO[C@H]1C[C@H](O[C@H]2[C@H](C)[C@@H](O[C@@H]3O[C@H](C)C[C@H](N(C)C)[C@H]3O)[C@@H](C)C[C@@]3(CO3)C(=O)[C@H](C)[C@@H](O)[C@@H](C)[C@@H](C)OC(=O)[C@@H]2C)O[C@@H](C)[C@@H]1O,128
18,COC(=O)[C@H]1[C@H]2C[C@H]3c4[nH]c5cc(OC)ccc5c4CCN3C[C@H]2C[C@@H](OC(=O)c2cc(OC)c(OC)c(OC)c2)[C@@H]1OC,80.4
19,CCOc1ccc(C(=O)c2ccc(OC)c(O)c2O)cc1,95.6
20,Cc1ncc(C[n+]2csc(CCO)c2C)c(N)n1,111

# As entered above.
# In synaptosome phagocytosis [%], COc1cc(O)cc(OC)c1OC is entered as 90.6
# In synaptosome phagocytosis [%], Nc1cc(C(Cl)=C(Cl)Cl)c(S(N)(=O)=O)cc1S(N)(=O)=O is entered as 114

# Later entries:

row,Compound,synaptosome phagocytosis [%]
1,CCC(=O)OCC(=O)[C@@]1(OC(=O)CC)[C@@H](C)C[C@H]2[C@@H]3CCC4=CC(=O)C=C[C@]4(C)[C@@]3(F)[C@@H](O)C[C@@]21C,82.2
2,O=C1C(CC[S+]([O-])c2ccccc2)C(=O)N(c2ccccc2)N1c1ccccc1 (centres undefined),122
3,CCCN(CCC)S(=O)(=O)c1ccc(C(=O)O)cc1,100
4,CC1(C)S[C@@H]2[C@H](N3C(=O)[C@@H](c4ccccc4)NC3(C)C)C(=O)N2[C@H]1C(=O)O,108
5,COc1c(O)cc(O)cc1O,133
6,Cc1c(N(C)C)c(=O)n(-c2ccccc2)n1C,93.2
7,C[N+](C)(C)CCOP(=O)(O)OP(=O)([O-])OC[C@H]1O[C@@H](n2ccc(N)nc2=O)[C@H](O)[C@@H]1O,119
8,COC(=O)C[C@H]1C(C)(C)[C@@H](OC(C)=O)[C@@H]2CC3C4CC(=O)O[C@@H](c5ccoc5)[C@]4(C)CCC3[C@@]1(C)C2=O (some centres undefined),97
9,CCOc1ccc2ccccc2c1C(=O)N[C@@H]1C(=O)N2[C@@H]1SC(C)(C)[C@@H]2C(=O)O,117
10,CN1C(=O)OC(C)(C)C1=O,134
11,Cn1c([N+](=O)[O-])cnc1COC(N)=O,114
12,OC(CCN1CCCCC1)(c1ccccc1)C1CC2C=CC1C2 (centres undefined),97.8
13,COc1c(-c2coc3cc4c(cc3c2=O)CC(O)C(C)(C)O4)ccc2c1C=CC(C)(C)O2 (centres undefined),75.7
14,NCCOB(c1ccccc1)c1ccccc1,118
15,CC1=CCCC(C)=CCC(C)(C)C=CC1 [HUMULENE (alpha)],118
16,C=CC(C1=CC(=O)C(OC)=CC1=O)c1ccc(O)cc1 (centres undefined),66.9
17,CCC[C@@H]1C[C@@H](C(=O)N[C@@H]([C@H]2O[C@H](SC)[C@H](O)[C@@H](O)[C@H]2O)[C@@H](C)O)N(C)C1,95.3
18,CCOC(=O)c1c(C)cc(O)cc1O,100
19,Nc1ccccc1C(=O)CC(N)C(=O)O (centres undefined),124
